Data published in patent US20130137748A1.
These are yes or no findings as the source states them, for the method shown. Binding seen in cells or lysates may run through a third protein. Some results given as binding are weak or reduced against the parent protein; the word gives no strength.

The chains behind the UniProt entries cited, without tags or fusion partners. Where a name states a change or a piece, a line headed by the entry shows the natural chain unless it says otherwise.
UniProt P35222: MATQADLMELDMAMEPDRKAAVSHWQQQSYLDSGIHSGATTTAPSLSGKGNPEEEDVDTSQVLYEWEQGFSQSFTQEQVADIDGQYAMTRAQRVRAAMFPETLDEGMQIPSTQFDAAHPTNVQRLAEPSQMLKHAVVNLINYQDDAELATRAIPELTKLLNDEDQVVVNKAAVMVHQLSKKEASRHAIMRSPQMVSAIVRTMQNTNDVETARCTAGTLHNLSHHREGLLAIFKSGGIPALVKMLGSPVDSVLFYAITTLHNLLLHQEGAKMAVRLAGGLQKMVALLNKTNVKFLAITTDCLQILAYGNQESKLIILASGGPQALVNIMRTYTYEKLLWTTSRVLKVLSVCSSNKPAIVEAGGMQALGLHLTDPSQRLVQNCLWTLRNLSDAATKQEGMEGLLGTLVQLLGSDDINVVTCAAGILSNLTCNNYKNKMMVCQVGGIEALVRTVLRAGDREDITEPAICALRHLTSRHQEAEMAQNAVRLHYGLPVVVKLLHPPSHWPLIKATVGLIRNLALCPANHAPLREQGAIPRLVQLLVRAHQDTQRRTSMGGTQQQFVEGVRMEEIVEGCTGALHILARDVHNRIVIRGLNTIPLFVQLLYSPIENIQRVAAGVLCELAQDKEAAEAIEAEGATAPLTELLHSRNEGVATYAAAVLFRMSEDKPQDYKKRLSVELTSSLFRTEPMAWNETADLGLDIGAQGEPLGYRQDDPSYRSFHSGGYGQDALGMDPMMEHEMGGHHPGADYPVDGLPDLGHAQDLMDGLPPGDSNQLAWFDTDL
UniProt P46940: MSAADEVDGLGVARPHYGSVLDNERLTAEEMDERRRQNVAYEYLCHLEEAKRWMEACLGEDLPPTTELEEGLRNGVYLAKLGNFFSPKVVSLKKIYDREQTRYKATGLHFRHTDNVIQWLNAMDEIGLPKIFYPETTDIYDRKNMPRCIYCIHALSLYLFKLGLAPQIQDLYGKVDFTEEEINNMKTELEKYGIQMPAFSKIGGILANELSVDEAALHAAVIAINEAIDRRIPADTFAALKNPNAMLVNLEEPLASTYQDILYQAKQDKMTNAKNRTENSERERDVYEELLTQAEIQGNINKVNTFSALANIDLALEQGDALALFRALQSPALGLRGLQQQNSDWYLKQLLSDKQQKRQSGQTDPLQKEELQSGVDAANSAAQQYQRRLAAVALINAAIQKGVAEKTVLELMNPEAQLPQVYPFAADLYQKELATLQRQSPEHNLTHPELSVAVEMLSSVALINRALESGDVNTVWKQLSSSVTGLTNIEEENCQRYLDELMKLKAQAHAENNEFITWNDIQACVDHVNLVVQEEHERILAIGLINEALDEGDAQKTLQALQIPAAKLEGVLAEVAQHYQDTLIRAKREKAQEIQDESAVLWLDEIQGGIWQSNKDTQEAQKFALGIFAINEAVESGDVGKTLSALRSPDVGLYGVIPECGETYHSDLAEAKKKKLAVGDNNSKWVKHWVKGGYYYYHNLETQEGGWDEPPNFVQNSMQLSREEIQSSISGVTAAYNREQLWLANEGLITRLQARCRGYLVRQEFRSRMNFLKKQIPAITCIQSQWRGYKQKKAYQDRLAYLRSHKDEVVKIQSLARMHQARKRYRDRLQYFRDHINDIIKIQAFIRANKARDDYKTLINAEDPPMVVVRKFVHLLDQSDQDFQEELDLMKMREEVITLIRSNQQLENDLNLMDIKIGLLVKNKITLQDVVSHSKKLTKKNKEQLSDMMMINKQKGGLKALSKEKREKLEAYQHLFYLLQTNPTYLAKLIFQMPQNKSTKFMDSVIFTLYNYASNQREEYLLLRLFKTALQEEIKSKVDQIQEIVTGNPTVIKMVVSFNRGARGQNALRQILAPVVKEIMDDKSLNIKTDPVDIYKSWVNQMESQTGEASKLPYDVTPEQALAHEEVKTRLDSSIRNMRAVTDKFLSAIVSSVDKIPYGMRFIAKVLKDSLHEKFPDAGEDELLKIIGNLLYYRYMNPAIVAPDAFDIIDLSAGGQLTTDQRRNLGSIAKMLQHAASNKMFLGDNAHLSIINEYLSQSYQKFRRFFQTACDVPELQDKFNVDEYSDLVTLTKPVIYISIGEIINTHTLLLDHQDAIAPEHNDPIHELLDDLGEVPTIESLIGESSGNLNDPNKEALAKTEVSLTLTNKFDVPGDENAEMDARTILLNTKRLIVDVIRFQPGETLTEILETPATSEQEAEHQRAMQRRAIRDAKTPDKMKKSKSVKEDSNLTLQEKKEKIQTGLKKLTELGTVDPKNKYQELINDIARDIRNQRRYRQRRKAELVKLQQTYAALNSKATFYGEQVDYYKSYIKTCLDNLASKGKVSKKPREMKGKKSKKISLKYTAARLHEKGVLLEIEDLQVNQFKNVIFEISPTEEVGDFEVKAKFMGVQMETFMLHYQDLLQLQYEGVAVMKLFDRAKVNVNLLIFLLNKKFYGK
UniProt Q13009: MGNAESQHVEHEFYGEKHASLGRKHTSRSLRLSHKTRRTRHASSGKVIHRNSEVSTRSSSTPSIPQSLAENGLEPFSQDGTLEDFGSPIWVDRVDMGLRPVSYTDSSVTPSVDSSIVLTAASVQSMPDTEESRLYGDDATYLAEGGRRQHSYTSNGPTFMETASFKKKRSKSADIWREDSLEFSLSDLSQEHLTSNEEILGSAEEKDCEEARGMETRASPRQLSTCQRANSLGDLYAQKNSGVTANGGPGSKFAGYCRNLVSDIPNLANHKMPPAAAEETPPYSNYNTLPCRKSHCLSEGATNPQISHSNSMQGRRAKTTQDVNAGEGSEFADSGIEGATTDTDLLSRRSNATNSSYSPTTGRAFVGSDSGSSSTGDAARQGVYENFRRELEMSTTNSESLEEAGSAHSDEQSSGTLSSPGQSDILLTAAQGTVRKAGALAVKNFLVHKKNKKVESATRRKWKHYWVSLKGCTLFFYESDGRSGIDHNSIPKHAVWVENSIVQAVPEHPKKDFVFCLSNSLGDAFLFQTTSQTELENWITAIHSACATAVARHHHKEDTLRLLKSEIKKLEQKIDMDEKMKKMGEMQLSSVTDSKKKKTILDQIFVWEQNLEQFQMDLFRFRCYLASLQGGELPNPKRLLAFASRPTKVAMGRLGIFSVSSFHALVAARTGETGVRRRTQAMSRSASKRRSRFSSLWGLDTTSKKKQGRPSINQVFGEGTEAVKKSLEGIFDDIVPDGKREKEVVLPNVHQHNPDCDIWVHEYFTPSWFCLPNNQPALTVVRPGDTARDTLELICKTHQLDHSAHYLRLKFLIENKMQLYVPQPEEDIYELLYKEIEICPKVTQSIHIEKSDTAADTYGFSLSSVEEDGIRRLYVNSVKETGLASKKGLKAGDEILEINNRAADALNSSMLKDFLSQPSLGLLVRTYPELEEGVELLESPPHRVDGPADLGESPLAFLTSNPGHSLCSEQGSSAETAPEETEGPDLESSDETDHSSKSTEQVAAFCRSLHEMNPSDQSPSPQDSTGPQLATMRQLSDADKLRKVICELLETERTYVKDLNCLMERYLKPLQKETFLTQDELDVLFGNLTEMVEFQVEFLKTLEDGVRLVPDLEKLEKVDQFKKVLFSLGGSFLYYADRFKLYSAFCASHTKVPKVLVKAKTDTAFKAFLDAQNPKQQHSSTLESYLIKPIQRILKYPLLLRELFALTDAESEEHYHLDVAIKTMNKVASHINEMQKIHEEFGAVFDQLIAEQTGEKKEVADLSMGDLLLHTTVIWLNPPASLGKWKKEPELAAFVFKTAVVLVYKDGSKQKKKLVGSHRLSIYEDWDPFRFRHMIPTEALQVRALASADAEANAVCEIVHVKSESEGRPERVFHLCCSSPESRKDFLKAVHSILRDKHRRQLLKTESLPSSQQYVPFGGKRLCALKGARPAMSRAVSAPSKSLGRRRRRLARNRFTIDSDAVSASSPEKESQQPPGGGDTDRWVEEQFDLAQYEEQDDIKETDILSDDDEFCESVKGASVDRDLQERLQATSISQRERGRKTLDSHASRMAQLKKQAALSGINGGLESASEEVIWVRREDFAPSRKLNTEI
UniProt P31751: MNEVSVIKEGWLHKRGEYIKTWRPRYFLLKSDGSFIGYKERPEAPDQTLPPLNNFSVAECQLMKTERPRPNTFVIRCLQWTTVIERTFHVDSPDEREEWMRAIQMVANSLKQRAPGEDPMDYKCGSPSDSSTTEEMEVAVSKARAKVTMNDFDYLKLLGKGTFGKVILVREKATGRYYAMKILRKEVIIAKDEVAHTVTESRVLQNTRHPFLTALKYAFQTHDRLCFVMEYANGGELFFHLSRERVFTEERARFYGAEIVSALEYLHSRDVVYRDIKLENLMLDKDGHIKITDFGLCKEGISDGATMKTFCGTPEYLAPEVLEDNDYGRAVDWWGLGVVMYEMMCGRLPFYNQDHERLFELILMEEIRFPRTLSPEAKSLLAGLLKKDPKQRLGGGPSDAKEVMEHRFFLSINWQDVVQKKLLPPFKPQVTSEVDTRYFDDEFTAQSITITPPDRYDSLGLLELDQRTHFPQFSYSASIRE
UniProt O96028: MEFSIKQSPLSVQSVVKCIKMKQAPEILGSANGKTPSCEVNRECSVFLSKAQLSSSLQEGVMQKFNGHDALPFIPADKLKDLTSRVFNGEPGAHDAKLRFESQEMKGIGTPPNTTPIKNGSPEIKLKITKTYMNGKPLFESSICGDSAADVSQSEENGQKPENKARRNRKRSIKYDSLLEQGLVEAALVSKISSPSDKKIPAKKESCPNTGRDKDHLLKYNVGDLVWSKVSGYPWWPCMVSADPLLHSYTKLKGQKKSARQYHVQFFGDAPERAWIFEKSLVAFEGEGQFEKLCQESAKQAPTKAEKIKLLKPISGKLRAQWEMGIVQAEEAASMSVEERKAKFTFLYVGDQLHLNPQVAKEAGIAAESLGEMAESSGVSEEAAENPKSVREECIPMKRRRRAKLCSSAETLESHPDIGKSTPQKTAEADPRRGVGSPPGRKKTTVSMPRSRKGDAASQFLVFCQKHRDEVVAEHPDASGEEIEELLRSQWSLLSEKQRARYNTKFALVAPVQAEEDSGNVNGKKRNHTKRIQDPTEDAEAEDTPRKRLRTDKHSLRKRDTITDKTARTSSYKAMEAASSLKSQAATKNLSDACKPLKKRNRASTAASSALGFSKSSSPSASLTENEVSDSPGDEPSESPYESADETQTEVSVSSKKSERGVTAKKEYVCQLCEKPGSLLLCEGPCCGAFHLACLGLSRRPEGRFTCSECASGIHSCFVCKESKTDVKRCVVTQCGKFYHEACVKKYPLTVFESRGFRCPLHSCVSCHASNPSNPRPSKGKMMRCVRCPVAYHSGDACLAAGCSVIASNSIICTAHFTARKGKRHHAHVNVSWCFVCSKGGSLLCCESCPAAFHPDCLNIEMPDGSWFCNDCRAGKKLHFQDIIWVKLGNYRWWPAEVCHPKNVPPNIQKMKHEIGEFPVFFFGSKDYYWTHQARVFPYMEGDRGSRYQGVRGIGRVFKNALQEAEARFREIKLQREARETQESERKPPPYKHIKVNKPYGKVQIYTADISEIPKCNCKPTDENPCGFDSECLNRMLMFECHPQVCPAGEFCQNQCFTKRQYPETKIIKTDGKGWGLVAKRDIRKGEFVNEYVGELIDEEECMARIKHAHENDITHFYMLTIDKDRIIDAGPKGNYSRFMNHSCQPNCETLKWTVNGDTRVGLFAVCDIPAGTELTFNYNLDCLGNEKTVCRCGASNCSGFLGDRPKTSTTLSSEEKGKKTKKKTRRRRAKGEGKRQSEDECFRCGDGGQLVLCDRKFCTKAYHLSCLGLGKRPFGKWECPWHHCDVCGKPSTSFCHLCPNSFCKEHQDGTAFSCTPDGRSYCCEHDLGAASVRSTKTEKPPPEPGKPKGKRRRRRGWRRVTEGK

Legend:
[1] = biological target: beta-catenin (Homo sapiens (Human)) (UniProt P35222); experiment: figure legend (co-immunoprecipitation)
[2] = biological target: IQGAP1 (IQ motif containing GTPase activating protein 1) (Homo sapiens (Human)) (UniProt P46940); experiment: discussion of the co-immunoprecipitation results
[3] = biological target: TIAM1 (T-cell lymphoma invasion and metastasis 1) (Homo sapiens (Human)) (UniProt Q13009); experiment: discussion of the co-immunoprecipitation results
[4] = biological target: beta-catenin (Homo sapiens (Human)) (UniProt P35222); experiment: discussion of the co-immunoprecipitation results
[5] = biological target: IQGAP1 (IQ motif containing GTPase activating protein 1) (Homo sapiens (Human)) (UniProt P46940); experiment: figure legend (IP-MS and co-immunoprecipitation)
[6] = biological target: TIAM1 (T-cell lymphoma invasion and metastasis 1) (Homo sapiens (Human)) (UniProt Q13009); experiment: figure legend (IP-MS and co-immunoprecipitation)
[7] = biological target: AKT2 (v-akt murine thymoma viral oncogene homolog 2) (Homo sapiens (Human)) (UniProt P31751); experiment: figure legend (IP-MS and co-immunoprecipitation)
[8] = biological target: IQGAP1 (IQ motif containing GTPase activating protein 1) (Homo sapiens (Human)) (UniProt P46940); experiment: co-immunoprecipitation (anti-FLAG M2 agarose, 293T lysate) and immunoblot
[9] = biological target: TIAM1 (T-cell lymphoma invasion and metastasis 1) (Homo sapiens (Human)) (UniProt Q13009); experiment: as above
[10] = biological target: AKT2 (v-akt murine thymoma viral oncogene homolog 2) (Homo sapiens (Human)) (UniProt P31751); experiment: as above
[11] = biological target: beta-catenin (Homo sapiens (Human)) (UniProt P35222); experiment: as above

binding [1]: binds
binding [2]: binds
binding [3]: binds
binding [4]: binds
binding [5]: binds
binding [6]: binds
binding [7]: binds
binding [8]: binds
binding [9]: binds
binding [10]: binds
binding [11]: binds
Substance: 3×FLAG-WHSC1 (Wolf-Hirschhorn syndrome candidate-1, FLAG-tagged) (from UniProt O96028 1-1365) (enzyme)
